Reference: doi:10.1101/2024.11.01.621566
These are yes or no findings as the source states them, for the method shown. Binding calls can cover weak binding; strength is not graded here. For some of these results: Tags and fused reporters may be left off the sequences shown. For some of these results: In cells and extracts the contact can be indirect.

Experiments:
[1] = target: BD-SUFC (Arabidopsis thaliana); test: two-hybrid
[2] = target: BD-SUFB (Arabidopsis thaliana); test: two-hybrid
[3] = target: GST-SUFB (Arabidopsis thaliana); test: pull-down
[4] = target: GST-SUFC (Arabidopsis thaliana); test: pull-down
[5] = target: GST-SUFD (Arabidopsis thaliana); test: pull-down
[6] = target: SUFC-cEYFP (Arabidopsis thaliana); test: split reporter
[7] = target: SUFB-cEYFP (Arabidopsis thaliana); test: split reporter

B1: AD-CLPS1 (protein, UniProt Q9SX29 1-159)
chain: METAICGRLALAPSSLFNSKSGDKHLVSKGPCVNRSILMTLSTSAALGKGGGVLDKPIIEKTTPGRESEFDLRKSKKIAPPYRVILHNDNFNKREYVVQVLMKVIPGMTVDNAVNIMQEAHINGLAVVIVCAQADAEQHCMQLRGNGLLSSVEPDGGGC
binding [1]: binds
binding [2]: binds

B2: MBP-CLPS1 (protein, UniProt Q9SX29 45-159)
chain: AALGKGGGVLDKPIIEKTTPGRESEFDLRKSKKIAPPYRVILHNDNFNKREYVVQVLMKVIPGMTVDNAVNIMQEAHINGLAVVIVCAQADAEQHCMQLRGNGLLSSVEPDGGGC
binding [3]: binds
binding [4]: binds
binding [5]: binds

B3: CLPS1-nEYFP (protein, UniProt Q9SX29 45-159)
chain: B2 chain
binding [6]: binds
binding [7]: binds
